## Drug screen on melanoma cell lines: apoptosis marker

Data from the primary screen of doi:10.1371/journal.pone.0140310, rounded.

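Human melanoma cell lines in 1,536-well plates were treated with two drugs together for 72 h, then fixed, stained and imaged. Values are the share of nuclei positive for cleaved PARP as a percentage of the same share in the DMSO control: 100 is the control level, higher means more apoptosis. Concentrations were fixed for each drug; these are the higher of two levels. No replicate spread is given; individual values may be noisy. Basal and induced levels differ widely between cell lines.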
Only some of the drugs and lines screened are listed, without regard to their results.
An entry leaves out what has no value listed here.
A dash means that no value is listed here.

Drugs:
vincristine, 0.0005 µM: CC[C@]1(O)C[C@H]2CN(CCc3c([nH]c4ccccc34)[C@@](C(=O)OC)(c3cc4c(cc3OC)N(C=O)[C@H]3[C@@](O)(C(=O)OC)[C@H](OC(C)=O)[C@]5(CC)C=CCN6CC[C@]43[C@@H]65)C2)C1
embelin, 6 µM: CCCCCCCCCCCC1=C(O)C(=O)C=C(O)C1=O
midostaurin, 0.4 µM: CO[C@@H]1[C@H](N(C)C(=O)c2ccccc2)C[C@H]2O[C@]1(C)n1c3ccccc3c3c4c(c5c6ccccc6n2c5c31)C(=O)NC4
erlotinib, 4 µM: C#Cc1cccc(Nc2ncnc3cc(OCCOC)c(OCCOC)cc23)c1
OSI-906, 2 µM: C[C@]1(O)C[C@@H](c2nc(-c3ccc4ccc(-c5ccccc5)nc4c3)c3c(N)nccn32)C1
decitabine, 0.5 µM: Nc1ncn([C@H]2C[C@H](O)[C@@H](CO)O2)c(=O)n1
PF-562271, 0.4 µM: CN(c1ncccc1CNc1nc(Nc2ccc3c(c2)CC(=O)N3)ncc1C(F)(F)F)S(C)(=O)=O
tozasertib, 0.03 µM: Cc1cc(Nc2cc(N3CCN(C)CC3)nc(Sc3ccc(NC(=O)C4CC4)cc3)n2)n[nH]1

Combination,RPMI-7951,LB2518-MEL,IPC-298
PF-562271 + OSI-906,148,319,119
PF-562271 + embelin,61.8,111,62.1
midostaurin + erlotinib,115,180,60.4
midostaurin + PF-562271,77.6,-,106
OSI-906 + midostaurin,66.8,285,90.8
tozasertib + OSI-906,110,58.0,77.4
OSI-906 + vincristine,99.6,51.8,160
decitabine + midostaurin,117,194,177
erlotinib + PF-562271,67.3,99.7,308
erlotinib + vincristine,235,1030,195
decitabine + OSI-906,190,96.0,134
embelin + vincristine,321,172,323
erlotinib + decitabine,306,60.2,342
decitabine + PF-562271,367,216,140
decitabine + vincristine,197,168,269
decitabine + embelin,52.3,164,106
vincristine + tozasertib,87.9,110,74.2
midostaurin + vincristine,199,73.8,48.4
OSI-906 + embelin,114,33.8,48.6
erlotinib + embelin,255,103,52.4
erlotinib + tozasertib,49.2,226,118
OSI-906 + erlotinib,71.2,277,72.9
midostaurin + tozasertib,357,155,157

3 of the entries, repeated:

* tozasertib + OSI-906 | RPMI-7951: 110; LB2518-MEL: 58.0; IPC-298: 77.4
* OSI-906 + embelin | RPMI-7951: 114; LB2518-MEL: 33.8; IPC-298: 48.6
* erlotinib + PF-562271 | RPMI-7951: 67.3; LB2518-MEL: 99.7; IPC-298: 308